Test results published in PubChem BioAssay AID1347076 (National Center for Advancing Translational Sciences (NCATS), 2019).
The whole screen tested about 400,000 compounds, of which about 13,000 (3.2%) were called active. The inconclusive results got no clear call from the source; some entries with a clear call stand among them for comparison. Calls come from the whole dose curve; as a rule, active = well fitted cell-killing curve with a large enough effect; inconclusive = small, poorly fitted or top-dose-only effect, or effect the other way; inactive = flat fitted curve, though single readings scatter. A potency beside an inconclusive call is a rough fit, not a confirmed value.

Assay: qHTS assay for MDR1-selective chemotherapeutics: Primary screen using the drug-selected MDR subline cells KB-V1; note: nearly all actives have a fitted effect of over 60% in size
Settings: KB-V1 MDR cells viability, CellTiter-Glo, 72 h; series mostly up to 46.1 µM
Outline: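 Compound-treated KB-V1 multidrug-resistant cells, 72 h, 37 degrees C; viability by CellTiter-Glo. Fitted qHTS curves give the values.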
Potency is the fitted concentration of half-maximal effect.

Question: Which Potency does the source give for `CCOC(=O)N1C2c3ccccc3C(c3ccccc32)N1C(=O)OCC` here?
Answer: inconclusive: 25.9 µM [cytotoxic, partial curve, poor fit]

Question: For `COc1ccc(CN(C)C(=O)Cn2ccc(N)nc2=O)cc1OC`, which Potency is on record?
Answer: inactive

Question: Which Potency does the source give for `CCOC(=O)c1c(C)[nH]c(C)c1S(=O)(=O)NCC(=O)Nc1ccc(C)c(N(C)C)c1` here?
Answer: inconclusive: 10.3 µM [rising, partial curve]

Question: Which Potency does the source give for `CC(C)CCC(=O)N1CCC(N2CCC(C(=O)NCc3ccccn3)CC2)CC1` here?
Answer: inconclusive: 0.58 µM [cytotoxic, full curve, poor fit]

Question: With `Fc1ccc2c(c1)C1C=CCC1C(c1cc3c(cc1Br)OCO3)N2` (centres undefined) as the compound, how does the Potency read?
Answer: inconclusive: 18.4 µM [cytotoxic, partial curve]

Question: With `CCSc1nnc2c(n1)OC(c1cc(OC)c(OC)c(OC)c1)Nc1ccccc1-2` (centres undefined) as the compound, how does the Potency read?
Answer: inactive

Question: With `O=C(CN1CCN(S(=O)(=O)c2ccccc2)CC1)N1CCCCC1` as the compound, how does the Potency read?
Answer: inconclusive: 18.4 µM [cytotoxic, single point]

Question: For `O=C(O)CCCn1cc(NC(=O)COc2ccc([N+](=O)[O-])cc2)cn1`, which Potency is on record?
Answer: inconclusive: 29.1 µM [rising, single point]

Question: Which Potency does the source give for `COc1cc2c(=O)c(C(=O)c3ccc(C)c(C)c3)cn(Cc3ccc(F)cc3)c2cc1OC` here?
Answer: inactive

Question: Which Potency does the source give for `COc1cc(OC)c(NC(=O)c2cc3c(=O)oc4ccc(C)cc4c3s2)cc1Cl` here?
Answer: inconclusive: 29.1 µM [cytotoxic, single point]

Question: For `COC(=O)c1sccc1NC(=O)c1c(C)c(-c2cccc(Cl)c2)nc2ccccc12`, which Potency is on record?
Answer: active: 10.3 µM

Question: Which Potency does the source give for `CCOC(=O)C1=C(COC(=O)c2c(OC)cccc2OC)NC(=O)NC1C` (centres undefined) here?
Answer: inconclusive: 23.1 µM [cytotoxic, single point]

Question: Which Potency does the source give for `CCOCCCN(C)C1CCN(C(=O)c2oc3ccccc3c2NC(=O)Cc2ccc([N+](=O)[O-])cc2)CC1` here?
Answer: inactive

Question: For `O=C(CCSCCC(=O)NN=Cc1ccc(F)cc1)NN=Cc1ccc(F)cc1`, which Potency is on record?
Answer: inconclusive: 23.1 µM [rising, single point]

Question: With `O=C(CCCN1C(=O)/C(=C/c2cccs2)SC1=S)NNC(=O)c1ccccc1O` as the compound, how does the Potency read?
Answer: inconclusive: 6.51 µM [cytotoxic, partial curve]

Question: For `Cc1ccc(-n2ncc3c(NCCO)ncnc32)cc1Cl`, which Potency is on record?
Answer: active: 5.8 µM

Question: Which Potency does the source give for `O=C(COC(=O)c1cc([N+](=O)[O-])ccc1N1CCOCC1)c1ccc(OC(F)F)cc1OC(F)F` here?
Answer: inconclusive: 9.2 µM [cytotoxic, partial curve, poor fit]

Question: For `COc1ccc(-c2cnc3c(NC(C)=O)cc(-c4cccc(C(=O)NCCO)c4)cn23)cc1OC`, which Potency is on record?
Answer: inactive

Question: With `O=C(Nc1ccc(F)cc1)c1cccc(N2C(=O)C3C4C=CC(C5CC45)C3C2=O)c1` (centres undefined) as the compound, how does the Potency read?
Answer: inactive

Question: Which Potency does the source give for `Cc1cc(NC(=O)c2cc(-c3ccc(Cl)cc3)on2)n(-c2ccccc2)n1` here?
Answer: inactive

Question: With `O=C1CN(C(=O)CSc2nnnn2-c2ccc(Cl)cc2)c2ccccc2N1` as the compound, how does the Potency read?
Answer: active: 16.4 µM

Question: With `COc1ccc(NC(=O)CN(C)CC(=O)Nc2sc3c(c2C(N)=O)CCC3)cc1` as the compound, how does the Potency read?
Answer: inconclusive: 20.6 µM [cytotoxic, single point]

Question: For `CC(=O)Nc1ccc(S(=O)(=O)N(C)CC(=O)NNC(=O)c2cccs2)cc1`, which Potency is on record?
Answer: inconclusive: 18.4 µM [rising, single point]

Question: With `COc1ccccc1C(=O)NNC(=O)c1nn(Cc2ccccc2)c(=O)c2ccccc12` as the compound, how does the Potency read?
Answer: inconclusive: 16.4 µM [cytotoxic, partial curve]

Question: For `C=CCOc1c(Br)cc(/C=N/O)cc1OCC`, which Potency is on record?
Answer: inconclusive: 29.1 µM [cytotoxic, single point]

Question: For `COc1ccc(-c2cc(C(=O)Nc3cccnc3)no2)cc1OC`, which Potency is on record?
Answer: inconclusive: 23.1 µM [cytotoxic, single point]

Question: Which Potency does the source give for `CCc1ccccc1NC(=S)N(CCOC)C(C)c1ccco1` (centres undefined) here?
Answer: inactive

Question: With `COC(=O)/C(=N/Nc1ccc(C)cc1)N1CCCc2ccccc21` as the compound, how does the Potency read?
Answer: inconclusive: 29.1 µM [cytotoxic, single point]

Question: Which Potency does the source give for `O=C(CNC(=O)c1ccc(S(=O)(=O)N2CCCC2)cc1)N/N=C/c1ccc(F)cc1` here?
Answer: inactive

Question: For `Cn1ncc(Cl)c1C(=O)NCc1ccc2c(c1)OCO2`, which Potency is on record?
Answer: inactive

Question: Which Potency does the source give for `CCOc1ccccc1C(=O)N[C@H](C(=O)OCc1cc(=O)oc2cc(C)ccc12)C(C)C` here?
Answer: active: 3.26 µM

Question: With `COC(=O)c1c(C)[nH]c(C(=O)C(C)OC(=O)C2CC2)c1C` (centres undefined) as the compound, how does the Potency read?
Answer: active: 11.6 µM

Question: Which Potency does the source give for `CC(=O)N/C(=N/c1nc(C)cc(C)n1)Nc1ccc(C)cc1Cl` here?
Answer: inconclusive: 29.1 µM [cytotoxic, single point]

Question: With `COC(=O)C1=CN(c2ccc(F)cc2)C(N)=C(C#N)C1c1cccc(OC)c1OC` (centres undefined) as the compound, how does the Potency read?
Answer: inconclusive: 9.2 µM [cytotoxic, partial curve, poor fit]

Question: For `CC1CN(S(=O)(=O)c2cccc(C(=O)OCC(=O)NCc3ccccc3)c2)CC(C)O1` (centres undefined), which Potency is on record?
Answer: inconclusive: 29.1 µM [rising, single point]

Question: With `C[C@H](NC(=O)N1CCn2c1nc1ccccc12)C(=O)NCC1CCCO1` (some centres undefined) as the compound, how does the Potency read?
Answer: inconclusive: 7.31 µM [rising, partial curve]

Question: Which Potency does the source give for `O=C(NNC(=O)c1ccccc1O)c1ccc(Cl)c(S(=O)(=O)N2CCc3ccccc32)c1` here?
Answer: inconclusive: 16.4 µM [cytotoxic, single point]

Question: With `CCc1cccc(C)c1NC(=O)C1CCCN1S(=O)(=O)c1cccc2nsnc12` (centres undefined) as the compound, how does the Potency read?
Answer: inactive

Question: Which Potency does the source give for `CC(C)(C)c1ccc(S(=O)(=O)NCCN2CCOCC2)cc1` here?
Answer: inactive

Question: With `CCCn1nnc(NCc2ccc(OCc3cccs3)c(OC)c2)n1` as the compound, how does the Potency read?
Answer: inconclusive: 32.6 µM [cytotoxic, single point]

Question: Which Potency does the source give for `CN1CCN(S(=O)(=O)c2cccc(C(=O)Nc3sc4c(c3-c3nc5ccccc5[nH]3)CCCC4)c2)CC1` here?
Answer: inactive

Question: With `Cc1ccc(Cl)cc1N1CCN(S(=O)(=O)c2c(C)nc3scc(C)n3c2=O)CC1` as the compound, how does the Potency read?
Answer: inconclusive: 9.2 µM [cytotoxic, partial curve]

Question: For `CCOc1cc(CNCCO)cc(Br)c1OCc1ccccc1`, which Potency is on record?
Answer: inconclusive: 29.1 µM [cytotoxic, single point]

Question: For `O=C(Nc1cccc(Cl)c1)OCCOCCOC(=O)Nc1cccc(Cl)c1`, which Potency is on record?
Answer: inactive
